Experimental data reported in the supplement of paper PMC3334620.
In all, about 33,000 sequences were measured (“E-score (-0.5 to 0.5)”: median about -0.016, highest 2% from about 0.3 on). The list shows a part of the results.

Molecular target: T1, Yer184c (UniProt P39961)
T1 sequence: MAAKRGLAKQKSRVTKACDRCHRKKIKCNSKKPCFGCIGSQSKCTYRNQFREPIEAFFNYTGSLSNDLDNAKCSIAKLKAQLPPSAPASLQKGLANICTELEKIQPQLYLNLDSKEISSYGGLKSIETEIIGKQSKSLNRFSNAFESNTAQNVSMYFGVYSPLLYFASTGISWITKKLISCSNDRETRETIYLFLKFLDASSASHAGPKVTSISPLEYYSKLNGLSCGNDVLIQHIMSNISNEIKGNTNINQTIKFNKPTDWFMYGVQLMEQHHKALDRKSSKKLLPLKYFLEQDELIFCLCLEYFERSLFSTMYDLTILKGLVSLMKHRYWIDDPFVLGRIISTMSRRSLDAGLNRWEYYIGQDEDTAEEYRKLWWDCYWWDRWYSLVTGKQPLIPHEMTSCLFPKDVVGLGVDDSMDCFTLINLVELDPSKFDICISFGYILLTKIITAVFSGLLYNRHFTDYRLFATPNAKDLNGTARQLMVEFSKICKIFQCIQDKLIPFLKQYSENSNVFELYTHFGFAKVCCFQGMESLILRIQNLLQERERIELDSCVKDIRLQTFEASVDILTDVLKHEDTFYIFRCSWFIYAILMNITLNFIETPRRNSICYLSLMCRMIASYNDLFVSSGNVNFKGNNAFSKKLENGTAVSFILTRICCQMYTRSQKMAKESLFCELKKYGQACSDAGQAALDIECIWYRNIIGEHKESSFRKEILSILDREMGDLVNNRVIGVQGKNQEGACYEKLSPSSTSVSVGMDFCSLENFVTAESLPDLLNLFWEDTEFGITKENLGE
Experiment: PBM E-score (8-mer binding enrichment) (E-score (-0.5 to 0.5)); higher = stronger / more preferred TF binding
Conditions: protein concentration: 100 nM; construct: GST-full length
In short: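 Universal all-10-mer Agilent arrays, double-stranded by primer extension on fresh or once-stripped slides, were probed with about 100-200 nM GST-tagged yeast transcription factors made by PURExpress. Fluorescent anti-GST detected bound protein, and masliner normalised the scans. E-scores from the Universal PBM Analysis Suite were given to each ungapped eight-base word pooled with its reverse complement.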

| Sequence | PBM E-score |
| --- | --- |
| AGATACCA | 0.109 |
| AGCGGAAA | 0.27 |
| ACTCTCAT | -0.0795 |
| CCATGTAA | -0.0912 |
| ACAATTTA | 0.102 |
| AACGCACG | 0.181 |
| GAATCTGA | -0.0993 |
| TCACACAA | -0.058 |
| CTCCAGGC | -0.273 |
| CTTGCGGC | 0.121 |
| AATCCCGG | 0.284 |
| GGCAGCAA | -0.0355 |
| ATGCGACA | -0.0955 |
| ACACCCTC | -0.27 |
| GGCCGGCC | 0.384 |
| GCGAACGA | 0.0149 |
| CTTCTGCA | 0.0161 |
| CATGGTGG | -0.153 |
| CGTATTCC | 0.184 |
| GCAGACCC | -0.103 |
| AATCTTAC | 0.206 |
| AGTCCATA | -0.0327 |

In a second layout: results already given.
ATGCGACA
  PBM E-score: -0.0955
ACACCCTC
  PBM E-score: -0.27
GGCCGGCC
  PBM E-score: 0.384
GCGAACGA
  PBM E-score: 0.0149

The list goes on.

| Sequence | PBM E-score |
| --- | --- |
| CGGCAGCC | 0.223 |
| GATCCGAC | 0.0808 |
| ACTCGGCT | 0.209 |
| AAGTTTGA | 0.0561 |
| CACGAGCC | -0.0693 |
| AGTCTTAC | -0.143 |
| ACGTCCGA | 0.0275 |
| AGCTTGCA | -0.0112 |
| AAGATGTC | -0.161 |
| AATCGTGT | 0.0587 |
| AAGCACAT | 0.1 |
| CTTTCCAA | 0.143 |
| AACTCGGA | 0.17 |
| AGACGTCA | -0.202 |
| CCGTATCC | 0.204 |
| CATGTGCC | -0.14 |
| GTCCCGTA | 0.0111 |
| ATCCACGG | 0.0634 |
| CACACTAC | -0.0799 |
| AATTTAAC | 0.281 |
| AGTTTGTG | -0.0244 |
| CTCATGAA | -0.0125 |

| Sequence | PBM E-score |
| --- | --- |
| ATAAACAA | 0.251 |
| CTCCTTCA | -0.0688 |
| CAGGGGCA | -0.101 |
| AGGGATAT | -0.146 |
| GTCAAACA | -0.0565 |
| CCCATGGC | -0.218 |
| AATTTGCA | 0.002 |
| GCGTAACA | -0.0793 |
| GTAAGGAA | -0.0396 |
| CGAGCGAG | 0.222 |
| ACCCCGTG | -0.0536 |
| CGTAATAC | 0.168 |
| CCGCTGGA | 0.128 |
| ATTATTCG | 0.285 |
| GTAGCATA | -0.0285 |
| TTAAAAAA | 0.262 |
| AAACCTGT | -0.0534 |
| ACTAGCAT | -0.028 |
| ACATATTC | 0.118 |
| CAGACGGA | 0.105 |
| CGCATACC | 0.0853 |
| AAGGCATG | -0.049 |

| Sequence | PBM E-score |
| --- | --- |
| AGGCGTAA | -0.0633 |
| ACCTGCAT | 0.0901 |
| CTAATAAG | -0.0319 |
| ATCCTCAT | -0.192 |
| AGGCAGTC | -0.192 |
| GGTCCGCA | 0.151 |
| CCTTCTCC | -0.0669 |
| CCAACGTC | -0.211 |
| CTCAATTA | 0.00936 |
| AACGAAGC | -0.133 |
| CGACACGA | 0.0191 |
| AACTTGCG | 0.0943 |
| ATCAGACA | 0.0525 |
| CTAGTTAC | 0.113 |
| AAGGATTA | -0.0352 |
| GTACATTA | 0.0622 |
| AGGTTGAC | -0.17 |
| AAAGTTTC | 0.0916 |
| CAGGTGAG | -0.288 |
| GGCAATGA | 0.0156 |
